Reference: the supplement of paper PMC12764529
± gives the half width of the 95% confidence interval. For many entries, trypsin and chymotrypsin gave values far apart.

Key:
[1] = folding stability dG unfold from trypsin proteolysis; higher = more stable
How it was run: (§1)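 Mini-proteins designed to be under 80 residues and free of cysteine were carried in a PA-tagged cDNA display construct and digested with trypsin and with chymotrypsin. Each protease was applied at 11 threefold-diluted concentrations, alongside a no-protease condition, before sequencing. K50 came from Bayesian fitting of the sequencing counts, and unfolding free energy was obtained by comparing it with a sequence-predicted unfolded-state K50 and a shared folded-state K50, for each protease separately or for both together. Designs were retained only if their AlphaFold2 dimer inter-PAE exceeded 15.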

[2] = folding stability dG unfold from chymotrypsin proteolysis; higher = more stable
How it was run: as §1

[3] = folding stability dG unfold (combined trypsin and chymotrypsin); higher = more stable
How it was run: as §1

Row | Sequence | folding stability dG unfold [1] | folding stability dG unfold [2] | folding stability dG unfold [3]
1 | SAGPSVTITLTLPDGVTVTLTVNEDGTVTLTVTATVKTTTYTVKDGKLTEKTETTETVTLTATFKLPDSAGG [r19_257_TrROS_Hall] | 2.95 ± 0.16 kcal/mol | 5.21 ± 0.16 kcal/mol | 5.11 ± 0.22 kcal/mol
2 | SAGGSAGGSAGMVTRRMTPEEAEKFIADLPSDWSVEEISPLPENDIVEIKIKVEPPFKLQSAGGSAGGSAGG [r17_98_JUSTAS] | -0.199 ± 0.09 kcal/mol | 1.76 ± 0.035 kcal/mol | 1.28 ± 0.097 kcal/mol
3 | SAGKSIKIPYIIRFPSPNGEPHLMRIKEVTINPKPGMVKIKFQMPGKKQTHTVPPNNIEILPDPEEILKSAG [r5_15_TrROS] | 0.116 ± 0.22 kcal/mol | -0.0282 ± 0.33 kcal/mol | -0.0216 ± 0.29 kcal/mol
4 | SAGGSAGGSAGGTIWIPIDTPDEIKELAENFGFKVEMEKRDDGWVWVKIEIVPPEENKRSAGGSAGGSAGGS [r10_218_TrROS] | 0.0436 ± 0.12 kcal/mol | 3.54 ± 0.25 kcal/mol | 2.11 ± 0.5 kcal/mol
5 | SAGGKEKKPIKIEITITKIEYDKENNVITLEYEIRIDGKLIKVKIRFFKDNPNKFVIESIEIFEEGKSAGGS [r16_89_TrROS_Hall] | 2.71 ± 0.12 kcal/mol | 4.83 ± 0.25 kcal/mol | 4.53 ± 0.37 kcal/mol
6 | SAGEEVYLITVRIIDPETNEVKEITKLIKNKTEDEILEELRKLLEELGIELPEGAKVEITITKIKPPPESAG [r5_230_TrROS_Hall] | 3.53 ± 0.52 kcal/mol | 4.07 ± 0.44 kcal/mol | 4.26 ± 0.82 kcal/mol
7 | KVKIVEVVKDPKTKKYVIKIEVEYDEETKQLTVKIEIVDEKTKKVTTIEVKADSLEEAEEAIKKLLPPGLLS [r1_156_TrROS_Hall] | 1.04 ± 0.074 kcal/mol | 3.28 ± 0.086 kcal/mol | 2.79 ± 0.12 kcal/mol
8 | SIEIYEGPEEAEEMAEENGTPVIPIPPDMNLSEILKQLKNQPGLPPDQKIVIVIQWEPGQWYVIRIPIKPSA [r9_314_TrROS] | 2.05 ± 0.059 kcal/mol | 2.734 ± 0.022 kcal/mol | 2.53 ± 0.091 kcal/mol
9 | SMTVSNPRGKTVTVTVTVTVDPNKKSVTVPVTIRTAGEELTFTFTVPKGVNKPVTFSLTVPLPPGSSVISSA [r9_973_JUSTAS] | 3 ± 0.093 kcal/mol | 4.02 ± 0.059 kcal/mol | 3.63 ± 0.089 kcal/mol
10 | SAGGSAGGSSFSVEVIENPDSDVILRKIHFDNFTVIPLFDPSTGKIVSVVVQFPDGSWYTFPLSAGGSAGGS [r12_563_TrMRF] | 2.18 ± 0.1 kcal/mol | 2.78 ± 0.053 kcal/mol | 2.51 ± 0.11 kcal/mol
11 | SDNFQPDMTFPVTEIGDDKVTMKYNGKPYYIPTSKITSPNVTVKITDGTVSEVSSPSPSPLPPENIKKLSSA [r9_842_JUSTAS] | -0.705 ± 0.24 kcal/mol | -0.293 ± 0.35 kcal/mol | -0.263 ± 0.42 kcal/mol
12 | SAGGSAGGSPESVTFPVGDYLVTVTRNPEDGSLTVTVYDPKTGKPIVLPPEVLAENPDLAENLSAGGSAGGS [r12_817_TrMRF] | 3.14 ± 0.11 kcal/mol | 2.35 ± 0.058 kcal/mol | 2.68 ± 0.056 kcal/mol
13 | SAGGSASSMPREYKISITITSPKGGTSYTAEATLTVYPDGSVEIEVTIDDSSSLPSSAVKTITIGTSAGGSA [r15_488_JUSTAS] | 1.86 ± 0.14 kcal/mol | 3.98 ± 0.1 kcal/mol | 3.29 ± 0.11 kcal/mol
14 | SAMVLKVEEEPFPPNAKREVKEIRKDPNSDNLFKVKIELEKSPDPSVTSAKVITIPPDGSKKVEEKVLESAG [r14_10_JUSTAS] | 0.514 ± 0.27 kcal/mol | 0.47 ± 0.19 kcal/mol | 0.508 ± 0.59 kcal/mol
15 | SAGGMTLTLKVDSEEEAKEAVKKLLEEKGINAKLEKITVTKHTVVHPESEAVETVYTVTVDLVIEPKSAGGS [r16_587_JUSTAS] | 1.23 ± 0.14 kcal/mol | 3.77 ± 0.11 kcal/mol | 3.22 ± 0.21 kcal/mol
16 | SAGGSAGGSAGGPKIEVNEDGTVTITLEVDGKLVTKTVKVELEAPPVETVEFVKEGEEVSAGGSAGGSAGGS [r10_240_TrROS_Hall] | 0.822 ± 0.043 kcal/mol | 1.21 ± 0.046 kcal/mol | 1.02 ± 0.077 kcal/mol
17 | SAGTYIEIKFKLPDGSEKTLVIEIPESENPEEWTEEKAKEIAEEIEKKLKEKGGIEALEVKIFPKEKESAGG [r19_27_JUSTAS] | 1.04 ± 0.04 kcal/mol | 3.87 ± 0.093 kcal/mol | 3.35 ± 0.12 kcal/mol
18 | SAGGKLDPVTFRVRFKLKFGDKEYEVEVEVTVTLPIPEPAPIVPIPKTAGKNAGGIPNTNTIIVDDGSAGGS [r8_28_TrMRF] | 1.25 ± 0.047 kcal/mol | 3.94 ± 0.12 kcal/mol | 3.44 ± 0.23 kcal/mol
19 | SAGDEIAELIRERFRKQGLNVEIDVERKPNGGVKLTFYFPEQGWMIEIEVRNGKITDIKIEPFPPEQIKSAG [r5_977_TrROS] | 2.19 ± 0.061 kcal/mol | 4.47 ± 0.096 kcal/mol | 4.1 ± 0.15 kcal/mol

A few values from the results shown.
For folding stability dG unfold [1], SAMVLKVEEEPFPPNAKREVKEIRKDPNSDNLFKVKIELEKSPDPSVTSAKVITIPPDGSKKVEEKVLESAG [r14_10_JUSTAS] has 0.514 ± 0.27 kcal/mol
For folding stability dG unfold [3], SAGKSIKIPYIIRFPSPNGEPHLMRIKEVTINPKPGMVKIKFQMPGKKQTHTVPPNNIEILPDPEEILKSAG [r5_15_TrROS] has -0.0216 ± 0.29 kcal/mol
